This is an account of results in doi:10.1101/2020.07.24.220525.

The chains behind the UniProt entries cited, without tags or fusion partners. Where a name states a change or a piece, a line headed by the entry shows the natural chain unless it says otherwise. Residues count along the entry.
UniProt Q99081, 9-642: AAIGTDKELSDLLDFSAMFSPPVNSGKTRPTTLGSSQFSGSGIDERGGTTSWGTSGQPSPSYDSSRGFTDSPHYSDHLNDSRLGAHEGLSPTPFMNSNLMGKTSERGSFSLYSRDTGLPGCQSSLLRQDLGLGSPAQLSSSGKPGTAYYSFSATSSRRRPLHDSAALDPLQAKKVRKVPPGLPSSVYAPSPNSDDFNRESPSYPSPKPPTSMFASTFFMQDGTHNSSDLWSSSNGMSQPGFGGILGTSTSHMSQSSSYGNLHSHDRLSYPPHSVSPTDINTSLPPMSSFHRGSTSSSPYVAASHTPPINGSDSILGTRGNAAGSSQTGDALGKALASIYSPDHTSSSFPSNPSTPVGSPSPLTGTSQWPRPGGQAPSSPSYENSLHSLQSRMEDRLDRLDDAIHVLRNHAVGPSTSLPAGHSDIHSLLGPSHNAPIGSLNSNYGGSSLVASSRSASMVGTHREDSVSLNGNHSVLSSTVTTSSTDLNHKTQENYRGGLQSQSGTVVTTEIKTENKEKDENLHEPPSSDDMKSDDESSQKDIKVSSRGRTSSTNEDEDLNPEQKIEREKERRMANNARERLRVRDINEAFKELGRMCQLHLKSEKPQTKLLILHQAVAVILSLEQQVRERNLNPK
UniProt Q99081, whole entry: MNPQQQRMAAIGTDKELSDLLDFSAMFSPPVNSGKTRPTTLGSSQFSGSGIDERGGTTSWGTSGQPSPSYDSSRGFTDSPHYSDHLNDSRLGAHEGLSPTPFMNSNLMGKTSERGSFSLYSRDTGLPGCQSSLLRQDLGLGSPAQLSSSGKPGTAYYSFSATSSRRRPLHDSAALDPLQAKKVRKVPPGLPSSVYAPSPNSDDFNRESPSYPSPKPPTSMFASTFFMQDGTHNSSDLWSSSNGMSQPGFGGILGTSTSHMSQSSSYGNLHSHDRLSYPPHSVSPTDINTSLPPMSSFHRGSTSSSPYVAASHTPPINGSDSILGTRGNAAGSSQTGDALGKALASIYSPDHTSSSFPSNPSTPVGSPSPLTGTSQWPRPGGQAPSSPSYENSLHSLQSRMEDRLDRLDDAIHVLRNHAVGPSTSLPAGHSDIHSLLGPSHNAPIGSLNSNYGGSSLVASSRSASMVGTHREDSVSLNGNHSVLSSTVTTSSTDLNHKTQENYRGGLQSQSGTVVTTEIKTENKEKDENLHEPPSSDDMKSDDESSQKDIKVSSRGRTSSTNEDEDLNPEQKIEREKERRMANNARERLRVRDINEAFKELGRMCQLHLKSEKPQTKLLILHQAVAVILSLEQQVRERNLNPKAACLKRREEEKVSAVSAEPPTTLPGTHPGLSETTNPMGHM
UniProt P15884, 1-652: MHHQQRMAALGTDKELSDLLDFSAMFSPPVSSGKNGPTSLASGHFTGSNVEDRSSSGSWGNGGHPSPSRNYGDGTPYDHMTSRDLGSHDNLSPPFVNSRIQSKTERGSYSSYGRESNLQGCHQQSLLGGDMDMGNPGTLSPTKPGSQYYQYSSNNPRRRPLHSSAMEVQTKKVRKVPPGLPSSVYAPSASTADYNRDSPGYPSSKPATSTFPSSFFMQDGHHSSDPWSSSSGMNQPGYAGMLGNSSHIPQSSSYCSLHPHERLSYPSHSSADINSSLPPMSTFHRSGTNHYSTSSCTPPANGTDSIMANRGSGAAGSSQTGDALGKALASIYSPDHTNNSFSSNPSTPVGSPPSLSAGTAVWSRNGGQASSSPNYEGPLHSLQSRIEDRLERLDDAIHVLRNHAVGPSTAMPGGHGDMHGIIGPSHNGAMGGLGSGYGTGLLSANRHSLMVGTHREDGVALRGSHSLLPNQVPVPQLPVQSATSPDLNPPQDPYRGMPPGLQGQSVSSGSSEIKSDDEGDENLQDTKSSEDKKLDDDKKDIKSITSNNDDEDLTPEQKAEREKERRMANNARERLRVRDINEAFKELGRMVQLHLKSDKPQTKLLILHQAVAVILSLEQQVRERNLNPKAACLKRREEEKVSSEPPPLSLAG

Positions count from the first letter of the chain named. Numbers in names are those of the source. Read-outs that look alike come from different tables or passages of the source. These are yes or no findings as the source states them, for the method shown. For some of these results: Binding seen in cells or lysates may run through a third protein. Some entries that bind do so weakly or less than the wild type. For some of these results: Sequences can lack the tags named with a protein.

The target of test [1] is T1, E47 (full-length) (UniProt P15923).
T1 sequence: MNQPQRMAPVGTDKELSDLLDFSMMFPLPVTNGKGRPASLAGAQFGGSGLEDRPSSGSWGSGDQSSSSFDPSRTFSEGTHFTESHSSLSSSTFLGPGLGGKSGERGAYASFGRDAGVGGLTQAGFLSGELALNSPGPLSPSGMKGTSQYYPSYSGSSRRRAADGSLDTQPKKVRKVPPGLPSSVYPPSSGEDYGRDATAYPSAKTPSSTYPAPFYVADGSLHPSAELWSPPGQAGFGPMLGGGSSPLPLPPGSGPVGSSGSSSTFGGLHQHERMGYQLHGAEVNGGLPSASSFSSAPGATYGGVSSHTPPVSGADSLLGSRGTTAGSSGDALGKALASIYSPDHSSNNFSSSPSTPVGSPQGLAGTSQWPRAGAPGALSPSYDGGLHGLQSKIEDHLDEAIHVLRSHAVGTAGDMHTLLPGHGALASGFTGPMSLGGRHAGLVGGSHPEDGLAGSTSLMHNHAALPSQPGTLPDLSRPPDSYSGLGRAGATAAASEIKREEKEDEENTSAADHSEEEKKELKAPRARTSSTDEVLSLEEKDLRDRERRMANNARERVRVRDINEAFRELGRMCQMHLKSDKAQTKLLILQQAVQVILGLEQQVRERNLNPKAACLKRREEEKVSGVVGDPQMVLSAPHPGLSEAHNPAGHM
In words: co-IP.

Test [2] deals with HEB (full-length) in 293T lysate (human (endogenous in 293T)) (UniProt Q99081). As to the kind of experiment: co-IP.
The target in test [3] is T2, Mtg16 F210A fused to LexA DNA-binding domain (UniProt O54972).
T2 sequence: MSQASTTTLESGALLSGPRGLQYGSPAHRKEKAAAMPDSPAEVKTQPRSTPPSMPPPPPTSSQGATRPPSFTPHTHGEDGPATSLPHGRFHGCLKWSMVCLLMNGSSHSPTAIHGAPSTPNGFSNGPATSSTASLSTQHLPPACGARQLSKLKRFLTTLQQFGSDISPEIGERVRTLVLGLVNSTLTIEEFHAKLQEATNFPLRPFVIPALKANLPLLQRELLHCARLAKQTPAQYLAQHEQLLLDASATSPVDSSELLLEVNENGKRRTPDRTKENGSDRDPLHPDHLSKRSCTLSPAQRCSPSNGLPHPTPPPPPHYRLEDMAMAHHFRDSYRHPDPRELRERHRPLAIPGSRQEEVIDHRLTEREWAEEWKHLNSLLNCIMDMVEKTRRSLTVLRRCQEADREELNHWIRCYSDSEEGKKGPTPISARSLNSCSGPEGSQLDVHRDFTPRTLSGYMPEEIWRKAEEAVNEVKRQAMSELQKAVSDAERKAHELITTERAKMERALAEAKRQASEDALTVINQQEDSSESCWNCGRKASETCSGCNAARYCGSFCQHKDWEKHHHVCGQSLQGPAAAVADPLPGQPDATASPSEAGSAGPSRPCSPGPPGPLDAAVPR
In words: two-hybrid.

Test [4] addresses T3, Mtg16 P209T fused to LexA DNA-binding domain (UniProt O54972).
T3 sequence: T2 sequence with P209T, A210F
In words: two-hybrid.

Test [5] concerns the target T4, Mtg16 wild type fused to LexA DNA-binding domain (UniProt O54972).
T4 sequence: T2 sequence with A210F
As to the kind of experiment: two-hybrid.

In test [6] the target is T5, Mtg16 P205A fused to LexA DNA-binding domain (UniProt O54972).
T5 sequence: T2 sequence with P205A, A210F
In words: two-hybrid.

For test [7], the target named is T1, E47 (full-length). As to the kind of experiment: co-IP. The source holds these as a separate data set.
Test [8] concerns the target HEB (full-length) in 293T lysate (human (endogenous in 293T)) (UniProt Q99081). In words: co-IP. This is another data set of the same source.

With “Myc-Mtg16 F210A (from UniProt O54972 1-620)”, the binding entry in the test with E47 (full-length) [1] is on record as “no binding”; in test [2], “binds weakly”.

For “fragment of HEB (aa9-642) fused to the Gal4 activation domain (from UniProt Q99081 9-642) (domain or fragment)”, the binding result in test [3] is reported as “no binding”; in test [4], “binds”; in test [5] it was “binds”.

For “TCF4(aa1-652)-Gal4-AD (from UniProt P15884 1-652) (domain or fragment)”, the binding result is “no binding” in test [3], “binds” in test [6], “binds” in test [4] and “binds” in test [5].

B1: Myc-Mtg16 wild type (protein, UniProt O54972 1-620)
chain: T2 sequence with A210F
On to B1, for which the binding entry (with E47 (full-length) [7]; in test [8]) was “binds” in each case.

B2: Myc-Mtg16 P209T (protein, UniProt O54972 1-620)
chain: T2 sequence with P209T, A210F
With B2, the binding result in the test with E47 (full-length) [7] is “no binding”; in test [8], “binds weakly”.
